Test results taken from patent US20060115428A1 (MorphoSys, published 2006).
Substitutions are numbered along the chain they refer to. Results are given in words; binding and its absence hold for the method and conditions named. Some results given as binding are weak or reduced against the parent protein; the word gives no strength.

Sequences of proteins named here, by UniProt entry; tags and fusion partners are left off. A change or cut given only in a name is not applied to a line headed by its entry. A line that says so, or that is headed by a name, gives the form on record, which may keep a tag or linker. Residues count along the entry.
recombinant fibronectin domain 7-ED-B-8-9 (P02751, residues 1173-1537): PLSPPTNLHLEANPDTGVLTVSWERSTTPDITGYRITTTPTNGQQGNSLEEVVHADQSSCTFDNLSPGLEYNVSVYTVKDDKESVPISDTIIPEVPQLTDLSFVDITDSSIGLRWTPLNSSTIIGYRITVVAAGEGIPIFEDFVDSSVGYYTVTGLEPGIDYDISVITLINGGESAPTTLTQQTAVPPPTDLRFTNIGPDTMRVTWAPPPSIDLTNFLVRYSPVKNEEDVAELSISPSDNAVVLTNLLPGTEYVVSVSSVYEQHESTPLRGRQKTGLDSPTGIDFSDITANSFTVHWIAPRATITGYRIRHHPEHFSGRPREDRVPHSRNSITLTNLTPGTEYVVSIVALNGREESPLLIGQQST
recombinant fibronectin domain ED-B (His)6 (P02751, form named): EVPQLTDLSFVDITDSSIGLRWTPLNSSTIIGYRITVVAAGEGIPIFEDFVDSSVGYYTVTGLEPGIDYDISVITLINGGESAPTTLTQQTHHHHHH

B1: MOR03255 (Fab, V domains shown)
VH: QVQLVESGGGLVQPGGSLRLSCAASGFTFSSYGMHWVRQAPGKGLEWVSVISNRSSYIYYADSVKGRFTISRDNSKNTLYLQMNSLRAEDTAVYYCARNKVGFDVWGQGTLVTVSS
VL: DIALTQPASVSGSPGQSITISCTGTSSDGGGYNTVSWYQQHPGKAPKLMIYYVHKRPSGVSNRFSGSKSGNTASLTISGLQAEDEADYYCQSWDLSVHQVVFGGGTKLTVLG
notes: Fab, H-CDR2 derivative of MOR03062
B2: MOR03253 (Fab, V domains shown)
VH: B1 VH with R54M, S55G, S56F, Y57E
VL: B1 VL
notes: Fab, H-CDR2 derivative
B3: MOR03252 (Fab, V domains shown)
VH: B1 VH with R54Y, S56W, Y57H
VL: B1 VL
notes: as for B1
B4: MOR03251 (Fab, V domains shown)
VH: B1 VH with R54M, S56Y, Y57T
VL: B1 VL
notes: as for B1
B5: MOR03257 (Fab, V domains shown)
VH: B1 VH with S55G, S56N
VL: B1 VL
notes: as for B1
B6: MOR03245 (Fab, V domains shown)
VH: QVQLQESGPGLVKPGETLSLTCTVSGGSISSYYWSWIRQAPGKGLEWIGVIHKWGFTNYNPSLKSRVTISVDTSKNQFSLKLSSVTAADTAVYYCARFFDVWGQGTLVTVSS
VL: DIVLTQPPSVSGAPGQRVTISCSGSSSNIGSNTVRWYQQLPGTAPKLLIYSNNKRPSGVPDRFSGSKSGTSASLAITGLQSEDEADYYCWTGMSYHFVFGGGTKLTVLG
notes: Fab, H-CDR2 derivative of MOR03069
B7: MOR03243 (Fab, V domains shown)
VH: B6 VH with V50E, K53R, W54G, F56Y, N58Q
VL: DIVLTQPPSVSGAPGQRVTISCSGSSSNIGSNTVRWYQQLPGTAPKLLIYSNNKRPSGVPDRFSGSKSGTSASLAITGLQSEDEADYYCQAWTRAHRYPVFGGGTKLTVLG
notes: Fab, H-CDR2 derivative of MOR03055
B8: MOR03075 (Fab, V domains shown)
VH: QVQLQESGPGLVKPGETLSLTCTVSGGSISSYYWSWIRQAPGKGLEWIGIGHWGSTQYNPSLKGRVTISVDTSKNQFSLKLSSVTAEDTAVYYCARFFDVWGQGTLVTVSS
VL: DIVLTQPPSVSGAPGQRVTISCSGSSSNIGSNTVRWYQQLPGTAPKLLIYSNNKRPSGVPDRFSGSKSGTSASLAITGLQSEDEADYYCQSWDPRSFTVFGGGTKLTVLG
notes: Fab, L-CDR3 derivative of MOR02619
B9: MOR03066 (Fab, V domains shown)
VH: B8 VH
VL: B8 VL with Q90S, W92Y, P94T, R95Q, S96V, F97T, T98R
notes: as for B8
B10: MOR03071 (Fab, V domains shown)
VH: B8 VH
VL: B8 VL with Q90L, S91A, W92Y, D93I, P94Q, R95S, S96K, F97G, T98H
notes: as for B8
B11: MOR03062 (Fab, V domains shown)
VH: B1 VH with N53S, R54S, S55G
VL: B1 VL
notes: Fab, L-CDR3 derivative of MOR02715
B12: MOR03064 (Fab, V domains shown)
VH: B1 VH with N53S, R54S, S55G
VL: B1 VL with S96L, V97A, H98P, Q99S
notes: as for B11
B13: MOR02619 (Fab, V domains shown)
VH: B8 VH
VL: B8 VL with P94G, R95A, F97T, T98G
notes: HuCAL GOLD Fab, VH4/L1
B14: MOR02616 (Fab, V domains shown)
VH: QVQLVESGGGLVQPGGSLRLSCAASGFTFRNNAMHWVRQAPGKGLEWVSAISSSGSGTYYADSVKGRFTISRDNSKNTLYLQMNSLRAEDTAVYYCARVIVLFDYWGQGTLVTVSS
VL: DIVLTQSPATLSLSPGERATLSCRASQNVRSNLAWYQQKPGQAPRLLIYGASNRATGVPARFSGSGSGTDFTLTISSLEPEDFAVYYCLQKYSIPFTFGQGTKVEIKR
notes: HuCAL GOLD Fab, VH3/K3
B15: MOR02613 (Fab, V domains shown)
VH: QVQLVESGGGLVQPGGSLRLSCAASGFTFSNYTMTWVRQAPGKGLEWVSFIIGSGSNTSYADSVKGRFTISRDNSKNTLYLQMNSLRAEDTAVYYCARYVNGFDIWGQGTLVTVSS
VL: DIALTQPASVSGSPGQSITISCTGTSSDVGVYYYVSWYQQHPGKAPKLMIYYDSKRPSGVSNRFSGSKSGNTASLTISGLQAEDEADYYCQTYAKKDYSLVFGGGTKLTVLG
notes: HuCAL GOLD Fab, VH3/L2
B16: MOR02715 (Fab, V domains shown)
VH: B1 VH with N53S, R54S, S55G
VL: B1 VL with S92A, L95N, S96Q, V97G, H98M, Q99K, V100Y
notes: HuCAL GOLD Fab, VH3/L2
B17: MOR02622 (Fab, V domains shown)
VH: QVQLVESGGGLVQPGGSLRLSCAASGFTFSNYAMTWVRQAPGKGLEWVSGISYKSSSTYYADSVKGRFTISRDNSKNTLYLQMNSLRAEDTAVYYCARGLVTFDNWGQGTLVTVSS
VL: DIALTQPASVSGSPGQSITISCTGTSSDGGTYNFVSWYQQHPGKAPKLMIYRVSNRPSGVSNRFSGSKSGNTASLTISGLQAEDEADYYCSSWTHSFTDYVFGGGTKLTVLG
notes: HuCAL GOLD Fab, VH3/L2
B18: MOR02611 (Fab, V domains shown)
VH: QVQLVQSGAEVKKPGASVKVSCKASGYTFSGSYMHWVRQAPGQGLEWMGIINPASGKTLYAQKFQGRVTMTRDTSISTAYMELSSLRSEDTAVYYCARGLYYRFASWGQGTLVTVSS
VL: DIALTQPASVSGSPGQSITISCTGTSSDIGGYHSVSWYQQHPGKAPKLMIYRSNRPSGVSNRFSGSKSGNTASLTISGLQAEDEADYYCAAATGGWVFGGGTNLTVLG
notes: HuCAL GOLD Fab, VH1B/L2
B19: MOR02614 (Fab, V domains shown)
VH: QVQLVESGGGLVQPGGSLRLSCAASGFTFNNNWMHWVRQAPGKGLEWVSFISGSGSHTYYADSVKGRFTISRDNSKNTLYLQMNSLRAEDTAVYYCARAYDVWGQGTLVTVSS
VL: DIVLTQPPSVSGAPGQRVTISCSGSSSNIGFNYVNWYQQLPGTAPKLLIYGNSKRPSGVPDRFSGSKSGTSASLAITGLQSEDEADYYCAMFSPEGVFGGGTKLTVLG
notes: HuCAL GOLD Fab, VH3/L1
B20: MOR02722 (Fab, V domains shown)
VH: B19 VH with N30S, N31S, W33A, M34I, F50S, H57N, A99F, Y100I, D101A, V102S
VL: DIVMTQSPLSLPVTPGEPASISCRSSQSLVHSNGYTDLNWYLQKPGQSPQLLIYLGSYRASGVPDRFSGSGSGTDFTLKISRVEAEDVGVYYCQQYSNFPFTFGQGTKVEIKR
notes: HuCAL GOLD Fab, VH3/K2
B21: MOR02610 (Fab, V domains shown)
VH: QVQLVQSGAEVKKPGASVKVSCKASGYTFTGFYINWVRQAPGQGLEWMGWINPYSGNTRYAQKFQGRVTMTRDTSISTAYMELSSLRSEDTAVYYCARSPVYYKYDYWGQGTLVTVSS
VL: DIVLTQPPSVSGAPGQRVTISCSGSSGNIGINFVNWYQQLPGTAPKLLIYKNNKRPSGVPDRFSGSKSGTSASLAITGLQSEDEADYYCQSYDKTSSTYVFGGGTKLTVLG
notes: HuCAL GOLD Fab, VH1B/L1
B22: MOR02618 (Fab, V domains shown)
VH: QVQLVESGGGLVQPGGSLRLSCAASGFTFNNYGMTWVRQAPGKGLEWVSSIYGYGSNTYYADSVKGRFTISRDNSKNTLYLQMNSLRAEDTAVYYCARNYWVFAYWGQGTLVTVSS
VL: DIELTQPPSVSVAPGQTARISCSGDNIPGKSVHWYQQKPGQAPVLVIYGKMNRPSGIPERFSGSNSGNTATLTISGTQAEDEADYYCQSYDNFNDSVVFGGGTKLTVLG
notes: HuCAL GOLD Fab, VH3/L3

Each binder was assayed against recombinant fibronectin domain ED-B (His)6 (human) (UniProt P02751) (assay: ELISA on immobilised ED-B after incubation of the Fab for 4 h at 37 °C in human plasma or PBS).

binding, binds:
B1
B2
B3
B4
B5
B6
B7

These binders were tested against recombinant fibronectin domain ED-B (His)6 (human) (UniProt P02751) (assay: ELISA, immunohistochemistry and cell adhesion test).

binding, binds:
B8
B9
B10
B11
B12

The binders below were run against recombinant fibronectin domain ED-B (His)6 (human) (UniProt P02751) (assay: specificity ELISA on immobilised recombinant ED-B).

binding, binds:
B13
B14
B15
B1
B2
B16
B3
B4
B5
B17
B18
B6
B19
B20
B21
B22

Each binder was assayed against recombinant fibronectin domain 7-ED-B-8-9 (UniProt P02751) (assay: specificity ELISA on immobilised recombinant domain 7-EDB-8-9).

binding, binds:
B13
B14
B15
B1
B2
B16
B3
B4
B5
B17
B18
B6
B19
B20
B21
B22
